The list shows a part of the results.

The chains behind the UniProt entries cited, without tags or fusion partners. Where a name states a change or a piece, a line headed by the entry shows the natural chain unless it says otherwise.
UniProt Q9NRW3: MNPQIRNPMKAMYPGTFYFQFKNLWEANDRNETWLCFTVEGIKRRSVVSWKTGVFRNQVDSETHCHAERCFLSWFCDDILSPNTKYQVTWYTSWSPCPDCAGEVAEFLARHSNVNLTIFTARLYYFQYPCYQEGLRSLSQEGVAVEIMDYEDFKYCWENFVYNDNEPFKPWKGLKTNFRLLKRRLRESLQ
UniProt Q7Z2E3: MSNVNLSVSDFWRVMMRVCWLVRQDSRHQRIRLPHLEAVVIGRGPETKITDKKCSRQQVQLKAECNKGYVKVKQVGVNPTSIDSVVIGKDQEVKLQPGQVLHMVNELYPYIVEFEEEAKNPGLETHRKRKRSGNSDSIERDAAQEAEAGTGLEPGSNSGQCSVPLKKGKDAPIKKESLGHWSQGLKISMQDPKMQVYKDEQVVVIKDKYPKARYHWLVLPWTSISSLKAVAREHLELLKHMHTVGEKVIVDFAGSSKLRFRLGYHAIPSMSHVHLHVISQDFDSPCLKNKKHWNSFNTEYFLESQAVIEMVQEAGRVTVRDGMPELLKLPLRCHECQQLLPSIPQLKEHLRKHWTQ
UniProt Q4KMQ2: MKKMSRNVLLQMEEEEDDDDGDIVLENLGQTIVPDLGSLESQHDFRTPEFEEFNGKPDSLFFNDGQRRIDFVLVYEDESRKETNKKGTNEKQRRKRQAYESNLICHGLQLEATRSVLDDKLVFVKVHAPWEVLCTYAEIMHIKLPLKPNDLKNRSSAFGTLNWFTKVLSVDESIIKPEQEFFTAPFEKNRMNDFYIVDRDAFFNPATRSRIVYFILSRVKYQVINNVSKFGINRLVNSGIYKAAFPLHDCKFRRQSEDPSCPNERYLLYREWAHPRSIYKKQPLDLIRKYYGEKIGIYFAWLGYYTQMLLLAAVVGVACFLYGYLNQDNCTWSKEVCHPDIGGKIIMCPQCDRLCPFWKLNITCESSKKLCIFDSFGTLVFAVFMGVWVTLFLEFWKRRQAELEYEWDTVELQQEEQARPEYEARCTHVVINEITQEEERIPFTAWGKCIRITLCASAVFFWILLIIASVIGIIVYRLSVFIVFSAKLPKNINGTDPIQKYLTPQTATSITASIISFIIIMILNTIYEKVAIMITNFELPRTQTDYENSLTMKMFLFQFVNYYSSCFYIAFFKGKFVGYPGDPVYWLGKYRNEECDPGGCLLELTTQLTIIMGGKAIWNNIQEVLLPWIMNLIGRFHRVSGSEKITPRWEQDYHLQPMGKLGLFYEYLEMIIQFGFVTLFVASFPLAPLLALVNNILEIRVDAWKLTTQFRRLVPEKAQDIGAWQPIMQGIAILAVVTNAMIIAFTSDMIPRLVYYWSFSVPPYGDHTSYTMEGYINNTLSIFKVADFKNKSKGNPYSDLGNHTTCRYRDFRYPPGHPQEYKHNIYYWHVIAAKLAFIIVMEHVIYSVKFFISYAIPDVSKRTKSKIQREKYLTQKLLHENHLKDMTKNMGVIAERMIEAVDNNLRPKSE
UniProt Q01484: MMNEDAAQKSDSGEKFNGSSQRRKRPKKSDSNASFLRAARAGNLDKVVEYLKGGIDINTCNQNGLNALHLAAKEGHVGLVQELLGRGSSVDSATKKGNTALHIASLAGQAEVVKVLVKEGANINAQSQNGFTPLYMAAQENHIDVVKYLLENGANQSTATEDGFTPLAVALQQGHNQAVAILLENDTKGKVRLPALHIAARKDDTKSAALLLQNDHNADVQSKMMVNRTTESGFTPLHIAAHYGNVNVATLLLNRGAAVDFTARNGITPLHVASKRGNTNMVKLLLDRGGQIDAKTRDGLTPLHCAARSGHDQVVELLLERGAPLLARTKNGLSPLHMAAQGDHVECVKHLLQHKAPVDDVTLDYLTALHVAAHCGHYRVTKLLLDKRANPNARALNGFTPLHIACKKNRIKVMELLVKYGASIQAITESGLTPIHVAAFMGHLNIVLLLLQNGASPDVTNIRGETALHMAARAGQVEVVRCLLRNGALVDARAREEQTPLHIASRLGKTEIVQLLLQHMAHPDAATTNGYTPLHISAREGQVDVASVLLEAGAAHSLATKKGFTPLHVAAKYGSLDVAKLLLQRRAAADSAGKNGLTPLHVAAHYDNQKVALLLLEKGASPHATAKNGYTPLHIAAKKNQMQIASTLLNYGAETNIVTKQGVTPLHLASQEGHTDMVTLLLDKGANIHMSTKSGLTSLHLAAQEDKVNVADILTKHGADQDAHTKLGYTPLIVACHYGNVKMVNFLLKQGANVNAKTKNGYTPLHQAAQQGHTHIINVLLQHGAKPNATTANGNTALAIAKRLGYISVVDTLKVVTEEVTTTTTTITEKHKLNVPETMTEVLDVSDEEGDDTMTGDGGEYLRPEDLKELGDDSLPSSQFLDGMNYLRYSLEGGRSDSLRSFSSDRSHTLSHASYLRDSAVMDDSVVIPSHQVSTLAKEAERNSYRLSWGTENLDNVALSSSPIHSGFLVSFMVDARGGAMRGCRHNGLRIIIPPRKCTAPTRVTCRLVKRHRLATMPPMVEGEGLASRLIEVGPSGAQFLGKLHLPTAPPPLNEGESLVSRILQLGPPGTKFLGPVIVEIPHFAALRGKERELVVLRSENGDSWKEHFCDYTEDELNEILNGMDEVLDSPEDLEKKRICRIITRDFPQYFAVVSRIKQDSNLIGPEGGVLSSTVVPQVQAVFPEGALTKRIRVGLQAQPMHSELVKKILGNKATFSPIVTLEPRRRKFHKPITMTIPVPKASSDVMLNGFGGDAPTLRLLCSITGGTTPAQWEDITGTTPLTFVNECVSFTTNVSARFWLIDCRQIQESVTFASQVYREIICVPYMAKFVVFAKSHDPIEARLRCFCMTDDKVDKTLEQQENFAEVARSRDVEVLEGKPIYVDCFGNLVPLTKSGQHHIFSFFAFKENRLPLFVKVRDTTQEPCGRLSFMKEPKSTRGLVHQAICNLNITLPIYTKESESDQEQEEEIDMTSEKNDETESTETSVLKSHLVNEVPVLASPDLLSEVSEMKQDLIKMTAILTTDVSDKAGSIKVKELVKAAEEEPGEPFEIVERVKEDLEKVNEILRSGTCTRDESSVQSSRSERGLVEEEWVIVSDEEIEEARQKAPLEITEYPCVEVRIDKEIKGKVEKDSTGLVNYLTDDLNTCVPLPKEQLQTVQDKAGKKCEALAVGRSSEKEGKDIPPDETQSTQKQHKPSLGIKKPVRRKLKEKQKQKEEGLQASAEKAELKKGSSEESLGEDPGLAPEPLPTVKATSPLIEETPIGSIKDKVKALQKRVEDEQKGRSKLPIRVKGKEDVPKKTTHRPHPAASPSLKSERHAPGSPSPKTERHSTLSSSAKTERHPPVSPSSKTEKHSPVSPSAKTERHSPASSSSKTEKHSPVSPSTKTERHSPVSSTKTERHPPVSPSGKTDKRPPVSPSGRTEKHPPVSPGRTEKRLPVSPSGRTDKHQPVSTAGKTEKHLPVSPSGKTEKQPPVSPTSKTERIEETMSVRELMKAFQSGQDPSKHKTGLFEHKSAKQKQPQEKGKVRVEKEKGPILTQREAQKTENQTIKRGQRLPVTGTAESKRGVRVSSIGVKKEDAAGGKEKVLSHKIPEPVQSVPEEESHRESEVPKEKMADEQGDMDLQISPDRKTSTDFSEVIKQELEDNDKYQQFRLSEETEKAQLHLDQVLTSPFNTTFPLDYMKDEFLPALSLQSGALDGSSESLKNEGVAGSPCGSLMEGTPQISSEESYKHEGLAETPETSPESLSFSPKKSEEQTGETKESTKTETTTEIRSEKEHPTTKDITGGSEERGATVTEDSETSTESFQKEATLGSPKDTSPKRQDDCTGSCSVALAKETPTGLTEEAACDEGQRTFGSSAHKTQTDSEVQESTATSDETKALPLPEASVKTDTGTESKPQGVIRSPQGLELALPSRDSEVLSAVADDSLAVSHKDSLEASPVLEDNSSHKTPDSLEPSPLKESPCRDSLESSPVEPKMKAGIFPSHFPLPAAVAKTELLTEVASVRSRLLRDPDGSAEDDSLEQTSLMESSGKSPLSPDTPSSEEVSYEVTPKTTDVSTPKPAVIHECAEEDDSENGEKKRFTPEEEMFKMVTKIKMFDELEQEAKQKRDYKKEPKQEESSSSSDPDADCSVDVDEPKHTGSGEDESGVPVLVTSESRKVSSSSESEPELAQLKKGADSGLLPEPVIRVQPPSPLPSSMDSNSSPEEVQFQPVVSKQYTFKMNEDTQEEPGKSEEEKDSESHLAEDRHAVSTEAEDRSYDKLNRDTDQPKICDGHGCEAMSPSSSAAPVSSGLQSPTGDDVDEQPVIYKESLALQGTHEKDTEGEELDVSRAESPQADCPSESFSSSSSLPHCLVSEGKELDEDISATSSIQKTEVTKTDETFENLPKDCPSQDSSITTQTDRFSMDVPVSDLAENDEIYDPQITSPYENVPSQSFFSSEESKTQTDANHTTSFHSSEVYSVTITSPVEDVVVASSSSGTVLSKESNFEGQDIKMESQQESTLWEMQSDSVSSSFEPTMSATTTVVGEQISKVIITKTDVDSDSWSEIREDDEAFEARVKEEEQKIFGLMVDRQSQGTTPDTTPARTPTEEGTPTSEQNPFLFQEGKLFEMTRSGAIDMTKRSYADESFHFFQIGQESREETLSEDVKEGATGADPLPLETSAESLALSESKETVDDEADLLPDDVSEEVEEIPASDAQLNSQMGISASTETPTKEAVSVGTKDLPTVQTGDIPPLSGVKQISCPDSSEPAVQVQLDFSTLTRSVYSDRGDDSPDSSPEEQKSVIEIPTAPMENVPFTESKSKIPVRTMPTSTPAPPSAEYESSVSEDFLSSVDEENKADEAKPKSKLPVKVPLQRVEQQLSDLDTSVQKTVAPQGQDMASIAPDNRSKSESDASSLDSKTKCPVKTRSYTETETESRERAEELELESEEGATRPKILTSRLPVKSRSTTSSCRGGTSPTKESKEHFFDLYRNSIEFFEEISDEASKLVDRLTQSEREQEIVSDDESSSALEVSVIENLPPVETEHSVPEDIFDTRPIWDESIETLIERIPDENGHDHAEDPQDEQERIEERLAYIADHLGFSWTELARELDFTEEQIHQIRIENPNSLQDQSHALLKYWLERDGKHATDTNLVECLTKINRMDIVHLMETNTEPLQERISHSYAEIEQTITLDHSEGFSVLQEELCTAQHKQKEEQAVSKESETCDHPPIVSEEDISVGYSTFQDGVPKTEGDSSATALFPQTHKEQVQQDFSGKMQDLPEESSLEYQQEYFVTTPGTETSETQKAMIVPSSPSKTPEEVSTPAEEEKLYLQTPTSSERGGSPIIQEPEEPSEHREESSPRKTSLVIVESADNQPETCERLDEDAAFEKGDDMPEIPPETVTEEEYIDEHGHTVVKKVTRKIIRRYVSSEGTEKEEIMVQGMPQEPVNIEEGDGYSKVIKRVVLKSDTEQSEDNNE
UniProt Q9UKG1: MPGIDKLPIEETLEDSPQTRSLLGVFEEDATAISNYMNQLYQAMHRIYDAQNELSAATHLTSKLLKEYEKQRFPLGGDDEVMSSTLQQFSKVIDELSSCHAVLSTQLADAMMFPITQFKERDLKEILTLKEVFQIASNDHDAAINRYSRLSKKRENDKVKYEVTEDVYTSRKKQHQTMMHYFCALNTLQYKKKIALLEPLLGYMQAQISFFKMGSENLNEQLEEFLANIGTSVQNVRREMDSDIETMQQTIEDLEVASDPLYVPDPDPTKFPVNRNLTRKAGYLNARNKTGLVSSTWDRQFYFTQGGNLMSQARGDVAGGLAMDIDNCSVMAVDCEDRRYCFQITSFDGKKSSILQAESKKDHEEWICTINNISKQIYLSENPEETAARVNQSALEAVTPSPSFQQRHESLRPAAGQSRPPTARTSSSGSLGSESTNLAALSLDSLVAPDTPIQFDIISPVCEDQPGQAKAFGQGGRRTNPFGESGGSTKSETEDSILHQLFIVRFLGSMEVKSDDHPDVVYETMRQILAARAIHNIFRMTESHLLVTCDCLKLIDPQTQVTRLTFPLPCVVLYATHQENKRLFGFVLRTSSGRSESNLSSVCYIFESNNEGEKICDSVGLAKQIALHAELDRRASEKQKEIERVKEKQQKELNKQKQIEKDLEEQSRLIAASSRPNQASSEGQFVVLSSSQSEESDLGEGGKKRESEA
UniProt Q96BI3, whole entry, looked up: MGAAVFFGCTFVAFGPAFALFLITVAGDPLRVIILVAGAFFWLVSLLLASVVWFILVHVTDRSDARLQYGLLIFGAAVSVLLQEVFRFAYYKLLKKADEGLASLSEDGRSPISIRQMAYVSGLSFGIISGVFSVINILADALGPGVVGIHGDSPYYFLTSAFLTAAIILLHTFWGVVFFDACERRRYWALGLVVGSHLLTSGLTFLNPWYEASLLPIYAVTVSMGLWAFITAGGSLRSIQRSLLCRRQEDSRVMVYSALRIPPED
UniProt Q9Y587: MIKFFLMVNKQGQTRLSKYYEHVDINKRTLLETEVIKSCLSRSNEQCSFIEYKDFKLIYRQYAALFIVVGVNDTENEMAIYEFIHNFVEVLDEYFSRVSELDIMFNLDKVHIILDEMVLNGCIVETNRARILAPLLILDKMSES

Compound in the first assay: C1=CC2=C(C=CC(=C2)/C=C\3/C(=O)NC(=NCC4=CC=CS4)S3)N=C1
Kind of assay: log2 fold change, soluble protein after heating vs DMSO (PISA); higher = thermal stabilisation; K562 cells, 10 uM, 30 min; active = over 0.2 and 3.5 SD of the protein, either way, in both replicates (recomputed). The essentials:
(§1)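 Soluble protein was quantified by TMTpro 16plex LC-MS/MS after channel sums were equalised. It was obtained as the supernatant after 21,000xg for 90 min from pooled aliquots of K562 cells (2×10^6 cells/mL, 10 μM compound, 30 min) heated for 3 min across 48°C-58°C and extracted in PBS with 0.5% NP-40 at 4°C. Thermal stability values are relative to control samples and come from duplicates. They are given as log2 fold changes.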
ARHGAP35 (UniProt Q9NRY4): the log2 fold change was inactive: 0.157.

Take ANKH (UniProt Q9HCJ1): the log2 fold change is inactive: 0.483.

Turning to APOL2 (UniProt J3KQL8), the log2 fold change is inactive: 0.072.

With ARHGAP18 (UniProt Q8N392), the log2 fold change is inactive: 0.053.

Consider ARHGAP17 (UniProt Q68EM7), for which the log2 fold change is inactive: 0.075.

Take AP1B1 (UniProt Q10567): the log2 fold change was inactive: -0.053.

For AP4B1 (UniProt Q9Y6B7), the log2 fold change is inactive: -0.081.

On to ARFRP1 (UniProt Q13795), for which the log2 fold change is inactive: 0.12.

As to APOBEC3C (UniProt Q9NRW3), the log2 fold change is inactive: -0.066.

For the target APTX (UniProt Q7Z2E3), the log2 fold change is inactive: 0.119.

As to ANO6 isoform 2 (UniProt Q4KMQ2), the log2 fold change was inactive: 0.006.

On to ANK2 (UniProt Q01484), for which the log2 fold change was inactive: 0.325.

For the target ANXA7 (UniProt P20073), the log2 fold change is inactive: -0.013.

Take AQR (UniProt O60306): the log2 fold change was inactive: 0.076.

For the target ANPEP (UniProt P15144), the log2 fold change is inactive: 0.11.

On to ARHGAP25 isoform 4 (UniProt P42331), for which the log2 fold change was inactive: 0.042.

For the target AP1M1 (UniProt Q9BXS5), the log2 fold change was inactive: 0.052.

Regarding ARHGEF12 (UniProt Q9NZN5), the log2 fold change was inactive: -0.219.

As for ARG2 (UniProt P78540), the log2 fold change was inactive: 0.06.

Consider APC (UniProt P25054), for which the log2 fold change is inactive: 0.038.

APPL1 (UniProt Q9UKG1): the log2 fold change is inactive: 0.055.

On to ANTXR2 isoform 4 (UniProt P58335), for which the log2 fold change is inactive: 0.

As to ANAPC7 (UniProt Q9UJX3), the log2 fold change is inactive: -0.022.

Regarding ARFGAP1 (UniProt Q8N6T3), the log2 fold change was inactive: -0.017.

Turning to ARHGEF7 isoform 5 (UniProt Q14155), the log2 fold change is inactive: 0.047.

ARFGAP3 (UniProt Q9NP61): the log2 fold change was inactive: 0.075.

Regarding ANP32E (UniProt Q9BTT0), the log2 fold change was inactive: 0.027.

Turning to ARHGAP4 isoform 2 (UniProt P98171), the log2 fold change was inactive: 0.121.

Consider AP3M1 (UniProt Q9Y2T2), for which the log2 fold change was inactive: 0.047.

Consider APH1A (UniProt Q96BI3), for which the log2 fold change was inactive: 0.073.

Consider APIP (UniProt Q96GX9), for which the log2 fold change was inactive: 0.035.

Take APEH (UniProt P13798): the log2 fold change was inactive: 0.008.

Consider APOH (UniProt P02749), for which the log2 fold change is inactive: -0.026.

As to AREG (UniProt P15514), the log2 fold change was inactive: -0.117.

Turning to ANKRD52 (UniProt Q8NB46), the log2 fold change is inactive: -0.016.

On to APAF1 (UniProt O14727), for which the log2 fold change is inactive: 0.016.

As to AP4S1 (UniProt Q9Y587), the log2 fold change is active: -0.456.

On to ANP32A (UniProt P39687), for which the log2 fold change was inactive: -0.038.

For the target ARCN1 (UniProt P48444), the log2 fold change is inactive: -0.004.

Compound in the next assay: C1=CC2=NC=CN=C2C=C1/C=C/3\C(=O)NC(=O)S3
The description is as above. The essentials: as §1
In the case of APOL2 (UniProt J3KQL8), the log2 fold change was inactive: -0.087.

ARHGAP18 (UniProt Q8N392): the log2 fold change was inactive: 0.024.

ARHGAP17 (UniProt Q68EM7): the log2 fold change is inactive: 0.064.

Consider AP1B1 (UniProt Q10567), for which the log2 fold change is inactive: 0.04.

AP4B1 (UniProt Q9Y6B7): the log2 fold change was inactive: 0.04.

In the case of ARFRP1 (UniProt Q13795), the log2 fold change is inactive: 0.048.

As to APOBEC3C (UniProt Q9NRW3), the log2 fold change was inactive: 0.019.

In the case of ANO6 isoform 2 (UniProt Q4KMQ2), the log2 fold change was inactive: 0.01.

For the target ANK2 (UniProt Q01484), the log2 fold change is inactive: -0.059.

As for ANXA7 (UniProt P20073), the log2 fold change is inactive: -0.008.

On to ARHGAP25 isoform 4 (UniProt P42331), for which the log2 fold change was inactive: -0.192.

For the target AP1M1 (UniProt Q9BXS5), the log2 fold change is inactive: 0.044.

ARHGEF12 (UniProt Q9NZN5): the log2 fold change was inactive: 0.11.

As for ARG2 (UniProt P78540), the log2 fold change was inactive: 0.061.

For the target APC (UniProt P25054), the log2 fold change was inactive: -0.09.

Regarding APPL1 (UniProt Q9UKG1), the log2 fold change is inactive: 0.016.

Take ANTXR2 isoform 4 (UniProt P58335): the log2 fold change was inactive: 0.032.

As to ANAPC7 (UniProt Q9UJX3), the log2 fold change is inactive: 0.014.

Regarding ARFGAP1 (UniProt Q8N6T3), the log2 fold change is inactive: -0.018.

Turning to ARHGEF7 isoform 5 (UniProt Q14155), the log2 fold change is inactive: -0.019.

Turning to ARFGAP3 (UniProt Q9NP61), the log2 fold change was inactive: 0.032.

Consider ANP32E (UniProt Q9BTT0), for which the log2 fold change is inactive: -0.025.

For ARHGAP4 isoform 2 (UniProt P98171), the log2 fold change was inactive: -0.209.

Take AP3M1 (UniProt Q9Y2T2): the log2 fold change was inactive: 0.012.

In the case of APH1A (UniProt Q96BI3), the log2 fold change was inactive: 0.048.

As to APIP (UniProt Q96GX9), the log2 fold change was inactive: 0.085.

As for APEH (UniProt P13798), the log2 fold change was inactive: 0.001.

For APOH (UniProt P02749), the log2 fold change is inactive: 0.069.

Take AP4S1 (UniProt Q9Y587): the log2 fold change is inactive: 0.

In the case of ANP32A (UniProt P39687), the log2 fold change was inactive: -0.001.

Consider ARCN1 (UniProt P48444), for which the log2 fold change was inactive: 0.021.

The record behind these values is the supplement of paper PMC10849652.
